This list was built around the results that the source calls inconclusive (neither active nor inactive); the mix of calls is not that of the screen. Where the call is inconclusive, the potency comes from a doubtful curve fit. Active and inactive are the calls of the source. Calls follow the shape of the dose curve; as a rule, active = well fitted inhibition curve with a large enough effect; inconclusive = small, poorly fitted or top-dose-only effect; inactive = no such curve, though single readings can be large or run the other way.
Assay: Acumen qHTS Assay for Inhibitors of the mTORC1 Signaling Pathway in MEF (Tsc2-/-, p53-/-) Cells: Hit Validation;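 also: phospho-rpS6 Ser235/236 immunofluorescence normalized to propidium iodide cell count; nearly all actives have a fitted effect of over 65% in size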
Conditions: Acumen imaging
With `C=CCNC1=C2C[C@@H](C)C[C@H](OC)[C@H](O)[C@@H](C)/C=C(\C)[C@H](OC(N)=O)[C@@H](OC)/C=C\C=C(/C)C(=O)NC(=CC1=O)C2=O` the Potency was inconclusive: 6.48 µM [inhibitor, full curve, poor fit]. With `Cc1nc2nncn2c(NCc2ccc(Cl)cc2)c1C` the Potency was active: 4.14 µM. For `CCCN(CCC)CC(O)Cn1cc(/C=C/C(=O)c2ccc(OC)cc2)c2ccccc21` (stereo unspecified), the Potency was inconclusive: 16.5 µM [inhibitor, single point]. With `CC(C)(C)c1ccc(S(=O)(=O)N2CCC(c3ccncc3)CC2)cc1` the Potency was inconclusive: 18.5 µM [inhibitor, single point]. For `CCOC(=O)C1=C(CN2CCN(c3cc(C)ccc3C)CC2)NC(=O)NC1c1ccc(Cl)cc1` (stereo unspecified), the Potency was inconclusive: 1.31 µM [inhibitor, partial curve]. With `O=C(Nc1ccc(F)c(F)c1)c1ccc(F)c(S(=O)(=O)N2CCC3(CC2)OCCO3)c1` the Potency was active: 10.4 µM. With `CCOCc1cc(CN2CCN(c3cccc(Cl)c3)CC2)c(O)c2ncccc12` the Potency was inconclusive: 16.5 µM [inhibitor, single point]. In the case of `Cc1cccc(N2CCN(c3ncnc4c3nc3n4CCCCC3)CC2C)c1` (stereo unspecified), the Potency is reported as active: 3.29 µM. With `COc1cccc(/C=C(\C#N)c2nc3ccc(C)cc3[nH]2)c1` the Potency was inconclusive: 26.1 µM [inhibitor, partial curve, poor fit]. In the case of `Cc1nc2scc(C)n2c(=O)c1S(=O)(=O)Nc1ccc(N2CCOCC2)c(Cl)c1`, the Potency is reported as active: 1.47 µM. For `CN(C)c1ccc(-c2nc3ccccn3c2Nc2ccc3c(c2)OCCO3)cc1`, the Potency was inconclusive: 23.3 µM [inhibitor, single point]. With `Cc1ccc(C)c(N2CCN(CCCNC(=O)c3nnc(Cc4ccc(F)cc4Cl)o3)CC2)c1` the Potency was active: 10.4 µM. With `Cc1cccc(OCC(=O)Nc2ccc(-c3nc4cc(C)ccc4o3)c(O)c2)c1` the Potency was active: 6.56 µM. In the case of `CCN(CC)c1ccc(NC(=O)CCS(=O)(=O)c2cccc3nsnc23)c(C)c1`, the Potency is reported as inconclusive: 23.3 µM [inhibitor, single point]. With `COc1ccccc1Cn1cc(C(=O)c2ccc(Cl)cc2)c(=O)c2ccccc21` the Potency was inconclusive: 23.3 µM [inhibitor, partial curve, poor fit]. With `COc1cc(NC(=O)Cn2nc(C(F)(F)F)c3c2CCCC3)c(OC)cc1Cl` the Potency was inconclusive: 11.7 µM [inhibitor, partial curve, poor fit]. With `CCOc1ccc(/C=C/c2nc3ccccc3n2S(=O)(=O)c2cccc(Cl)c2)cc1` the Potency was inconclusive: 13.1 µM [inhibitor, single point]. In the case of `CCOc1ccc(N(CC(=O)Nc2ccccc2CC)S(=O)(=O)c2c(C)noc2C)cc1`, the Potency is reported as inconclusive: 14.7 µM [inhibitor, partial curve, poor fit]. With `COc1ccc(/C=C/C(=O)Nc2ccc3nc(N4CCC(C)CC4)cc(C)c3c2)cc1OC` the Potency was inconclusive: 20.7 µM [inhibitor, single point]. In the case of `Cc1oc2ccc(O)c(CN3CCCC(C)C3)c2c1C(=O)Nc1ccccc1` (stereo unspecified), the Potency is reported as inconclusive: 20.7 µM [inhibitor, single point]. In the case of `CCOCc1cc(CN2CCN(c3ccccc3OC)CC2)c(O)c2ncccc12`, the Potency is reported as active: 5.21 µM. With `CCCCS(=O)(=O)c1nc(-c2ccc(Br)cc2)cc(-c2ccccc2)c1C#N` the Potency was active: 6.56 µM. In the case of `CCOc1ccc(CCNC(=O)CCc2c(C)nc3cc(-c4ccccc4OC)nn3c2C)cc1`, the Potency is reported as inconclusive: 10.4 µM [inhibitor, partial curve, poor fit]. In the case of `Cc1noc(/C=C/N(C)C)c1S(=O)(=O)N1CCCC(C(=O)Nc2ccc(F)cc2F)C1` (stereo unspecified), the Potency is reported as active: 1.85 µM. With `CCOC(=O)N1CCN(Cc2nc3cc(NC(=O)c4cccc(C)c4)ccc3n2C(C)C)CC1` the Potency was inconclusive: 0.0165 µM [inhibitor, full curve, poor fit]. With `CCCCN1C(=O)C(O)(CC(=O)c2ccc(C(C)(C)C)cc2)c2ccccc21` (stereo unspecified) the Potency was inconclusive: 26.1 µM [inhibitor, single point]. In the case of `CC(C)(C)c1ccc(-c2nc(S(=O)(=O)c3ccccc3)c(N3CCOCC3)o2)cc1`, the Potency is reported as inconclusive: 2.61 µM [inhibitor, full curve]. With `COc1cc(C2CC(=O)Nc3cc4c(cc32)OCCO4)cc(Br)c1OC` (stereo unspecified) the Potency was inconclusive: 0.521 µM [inhibitor, full curve]. For `CCc1ccc(OCC(=O)N(Cc2ccc(C)cc2)Cc2ccco2)cc1`, the Potency was inconclusive: 0.736 µM [inhibitor, full curve]. With `Cc1nc2ccc(S(=O)(=O)CCC(=O)Nc3ccc(Cl)cc3)cc2s1` the Potency was inconclusive: 23.3 µM [inhibitor, single point]. With `CCCN1C(=O)C(O)(CC(=O)c2ccc(CC)cc2)c2ccccc21` (stereo unspecified) the Potency was inconclusive: 26.1 µM [inhibitor, single point]. In the case of `CCCN(c1ccccc1CC)S(=O)(=O)c1ccc2c(c1)CC(C)N2C(=O)C1CC1` (stereo unspecified), the Potency is reported as active: 0.521 µM. For `Cc1ccccc1OCC(O)Cn1c(=N)n(CCN2CCCCC2)c2ccccc21` (stereo unspecified), the Potency was inconclusive: 10.4 µM [inhibitor, partial curve, poor fit]. In the case of `Cc1ccc2nc(/C(C#N)=C/c3cccc(Br)c3)[nH]c2c1`, the Potency is reported as inconclusive: 14.7 µM [inhibitor, single point]. For `CCCCN1C(=O)C(O)(CC(=O)c2ccc(CC)cc2)c2cc(Br)ccc21` (stereo unspecified), the Potency was inconclusive: 23.3 µM [inhibitor, single point]. In the case of `CCCN1CCN(c2ncnc3sc(C(=O)Nc4ccc(OC(F)(F)F)cc4)c(C)c23)CC1`, the Potency is reported as inconclusive: 26.1 µM [inhibitor, single point].

Reference: PubChem BioAssay AID651784 (National Center for Advancing Translational Sciences (NCATS), 2012)
Potency is read from the fitted curve at half-maximal effect.
